Data reported in patent US20220064302A1.
Where a chain is given by its changes, count along the chain named. No constants are given. Whether binding was seen depends on the method and setting.

B1: A1 (antibody, V domains shown)
VH: QVQLVESGGGVVQPGRSLRLSCAASGFTFSNYGMHWVRQAPGKGLEWVAVIWYDGSNKYYTDSVKGRFTISRDNSKNTLYLQMNSLRAEDTAVYYCAGGGNYYGDYWGQGTLVTVSS
VL: DIQMTQSPSSLSASVGDRVTITCRASQGIRNDLGWYQQKPGKAPKRLIYVASSLQSGVPSRFSGSGSGTEFTLTISSLQPEDFATYYCLQHNSYPLTFGGGTKVEIKR
B2: A3 (antibody, V domains shown)
VH: B1 VH with V11E, N31D, T61A, N101S, Y103W
VL: B1 VL with D32E, V50A, N92Y, S93I, L96W, G100Q

Target: Cyno PD-1 (cyno)
Experiment: BLI (Octet Red96), mAb on AHC biosensor, cyno PD-1 as analyte

Binder	binding
B1	no binding (tested: antigen dilutions beginning at 300 nM)
B2	no binding (tested: antigen dilutions beginning at 300 nM)
